Here are results for one substance from publication PMC7005486.

Chains of the proteins cited; added tags and fusions are not shown.
UniProt Q13283: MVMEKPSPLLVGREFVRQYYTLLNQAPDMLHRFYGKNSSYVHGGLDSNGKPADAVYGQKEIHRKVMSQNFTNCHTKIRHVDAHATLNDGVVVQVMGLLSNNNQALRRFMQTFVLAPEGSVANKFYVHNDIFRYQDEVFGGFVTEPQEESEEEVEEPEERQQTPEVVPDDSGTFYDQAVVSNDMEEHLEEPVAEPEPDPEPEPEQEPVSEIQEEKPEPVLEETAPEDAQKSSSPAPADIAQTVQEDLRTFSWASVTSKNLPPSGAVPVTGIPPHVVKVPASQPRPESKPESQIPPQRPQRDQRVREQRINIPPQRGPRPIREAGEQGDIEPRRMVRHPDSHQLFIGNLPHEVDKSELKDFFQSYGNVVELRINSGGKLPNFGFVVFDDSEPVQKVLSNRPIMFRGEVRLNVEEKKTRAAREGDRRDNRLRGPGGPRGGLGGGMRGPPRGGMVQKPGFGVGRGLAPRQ
UniProt Q9UBN7: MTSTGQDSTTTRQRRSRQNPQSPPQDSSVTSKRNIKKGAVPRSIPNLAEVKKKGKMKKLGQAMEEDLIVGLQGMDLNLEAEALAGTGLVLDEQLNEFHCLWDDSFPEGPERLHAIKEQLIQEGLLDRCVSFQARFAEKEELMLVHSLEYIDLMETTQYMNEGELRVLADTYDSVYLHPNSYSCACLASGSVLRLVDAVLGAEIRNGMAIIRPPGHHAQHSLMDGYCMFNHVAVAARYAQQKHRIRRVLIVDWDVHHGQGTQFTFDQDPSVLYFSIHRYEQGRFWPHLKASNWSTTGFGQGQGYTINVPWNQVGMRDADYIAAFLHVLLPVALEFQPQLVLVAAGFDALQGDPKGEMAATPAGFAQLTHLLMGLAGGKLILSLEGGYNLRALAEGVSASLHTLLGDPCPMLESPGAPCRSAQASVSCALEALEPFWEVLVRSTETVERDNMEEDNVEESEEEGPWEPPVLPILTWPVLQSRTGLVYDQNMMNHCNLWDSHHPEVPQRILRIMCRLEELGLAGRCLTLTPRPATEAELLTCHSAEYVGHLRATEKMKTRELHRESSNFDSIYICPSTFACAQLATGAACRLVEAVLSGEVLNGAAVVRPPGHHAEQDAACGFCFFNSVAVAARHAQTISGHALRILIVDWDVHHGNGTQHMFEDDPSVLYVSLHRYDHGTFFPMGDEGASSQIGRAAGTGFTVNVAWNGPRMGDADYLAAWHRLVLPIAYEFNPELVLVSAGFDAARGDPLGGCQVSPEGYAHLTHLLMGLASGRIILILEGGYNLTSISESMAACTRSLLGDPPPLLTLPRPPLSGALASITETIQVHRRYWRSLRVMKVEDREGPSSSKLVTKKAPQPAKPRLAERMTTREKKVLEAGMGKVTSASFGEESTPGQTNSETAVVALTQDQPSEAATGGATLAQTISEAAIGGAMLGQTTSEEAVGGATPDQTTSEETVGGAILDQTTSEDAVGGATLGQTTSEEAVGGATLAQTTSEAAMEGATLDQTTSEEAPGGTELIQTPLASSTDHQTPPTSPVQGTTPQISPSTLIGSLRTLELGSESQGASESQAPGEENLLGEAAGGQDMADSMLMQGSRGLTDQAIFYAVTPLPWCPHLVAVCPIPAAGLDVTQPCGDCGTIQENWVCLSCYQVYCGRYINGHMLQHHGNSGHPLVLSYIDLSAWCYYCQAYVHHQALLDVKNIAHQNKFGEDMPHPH

The target in this experiment is G3BP1, endogenous in RD cells (human (endogenous in RD)) (UniProt Q13283). Description: co-IP; endogenous proteins; RD cells infected with CA16 (MOI 1, 4 h) or mock infected; RIPA lysates incubated with 1 ug antibody (anti-G3BP1, anti-HDAC6 or anti-p62) at 4°C overnight, protein A/G agarose, Western blot. For orientation: In western blotting, separated proteins are transferred to a membrane and probed.

Results are given in words; binding and its absence hold for the method and conditions named. In cells and extracts the contact can be indirect. Some entries that bind do so weakly or less than the wild type.

Take “histone deacetylase 6 (HDAC6), endogenous in RD cells (from UniProt Q9UBN7 1-1215)”: the binding entry is “binds”.
